Measurements taken from patent publication US20060182683A1, “Methods for reduced renal uptake of protein conjugates” (Center for Molecular Medicine and Immunology, priority 1995, published 2006).

What was measured:
Assay type in all cases: in vivo
mice [1] = assay: Kidney uptake of 125I-labeled Fab′ NP-4 and dosimetry for 131I-labeled Fab′ under L-lysine; conditions: L-lysine 4 × 2 mg/g
From the text: (§1) After cervical dislocation, the animals were dissected.

[2] = test system: GW39 colonic cancer xenograft bearing nude mice; assay: Dosimetry of 111In/88Y-Bz-DTPA-Fab′ MN-14 under L-lysine treatment; conditions: L-lysine four times 2000 μg/g i.p.
Protocol: as §1
To test the effectiveness of L-lysine in reduction of kidney uptake of indium and yttrium-labeled Fab′ fragments, a mixture of ^111In and ^88Y-labeled Fab′ fragments of the anti-CEA antibody MN-14 were injected into GW39 colon carcinoma bearing nude mice (injected with four times 2000 μg/g L-lysine; the control group were untreated). FIG. 4 and Table 4 suns the results.

mice [3] = assay: Kidney uptake and dosimetry of yttrium-labeled F(ab′)2 of anti-CD22 LL2 under L-lysine; conditions: Lys treated
[4] = test system: nude mice bearing GW39 colonic cancer xenografts; assay: Kidney uptake and dosimetry of 188Re-Fab′ Mu-9 under L-lysine treatment; conditions: L-lysine treated
From the text: as §1
No effect on the uptake in the tunor or other organs was observed.

NCCCC[C@H](N)C(=O)O [L-lysine]
Blood dose of 131I-Fab′ NP-4 (mice [1]): 116.6 cGy/mCi | Kidney dose of 131I-Fab′ NP-4 (mice [1]): 116.6 cGy/mCi | Liver dose of 131I-Fab′ NP-4 (mice [1]): 77.2 cGy/mCi | Lung dose of 131I-Fab′ NP-4 (mice [1]): 120.2 cGy/mCi | Spleen dose of 131I-Fab′ NP-4 (mice [1]): 42.1 cGy/mCi | Blood 90Y dose, cGy/mCi based on 88Y [2]: 588.4 cGy/mCi | Blood 90Y dose, cGy/mCi based on 111In [2]: 508.7 cGy/mCi | Bone 90Y dose, cGy/mCi based on 88Y [2]: 588.4 cGy/mCi | Bone 90Y dose, cGy/mCi based on 111In [2]: 508.7 cGy/mCi | GW39 90Y dose, cGy/mCi based on 88Y [2]: 5751.1 cGy/mCi | GW39 90Y dose, cGy/mCi based on 111In [2]: 6478.1 cGy/mCi | Intestine 90Y dose, cGy/mCi based on 88Y [2]: 560.2 cGy/mCi | Intestine 90Y dose, cGy/mCi based on 111In [2]: 768.1 cGy/mCi | Kidney 90Y dose, cGy/mCi based on 88Y [2]: 6231.0 cGy/mCi | Kidney 90Y dose, cGy/mCi based on 111In [2]: 7849.0 cGy/mCi | Liver 90Y dose, cGy/mCi based on 88Y [2]: 1651.9 cGy/mCi | Liver 90Y dose, cGy/mCi based on 111In [2]: 2096.8 cGy/mCi | Lung 90Y dose, cGy/mCi based on 88Y [2]: 431.1 cGy/mCi | Lung 90Y dose, cGy/mCi based on 111In [2]: 662.8 cGy/mCi | Spleen 90Y dose, cGy/mCi based on 88Y [2]: 499.2 cGy/mCi | Spleen 90Y dose, cGy/mCi based on 111In [2]: 564.5 cGy/mCi | T/NT yttrium, Blood [2]: 9.77 | T/NT yttrium, Bone [2]: 9.77 | T/NT yttrium, Intestine [2]: 10.26 | T/NT yttrium, Kidney [2]: 0.93 | T/NT yttrium, Liver [2]: 3.48 | T/NT yttrium, Lung [2]: 13.3 | T/NT yttrium, Spleen [2]: 11.52 | T/NT yttrium, Washed bone [2]: 11.81 | Washed bone 90Y dose, cGy/mCi based on 88Y [2]: 486.8 cGy/mCi | Washed bone 90Y dose, cGy/mCi based on 111In [2]: 277.6 cGy/mCi | Blood dose of yttrium-labeled F(ab′)2 LL2 (mice [3]): 3651.3 cGy/mCi | Kidney dose of yttrium-labeled F(ab′)2 LL2 (mice [3]): 10813.9 cGy/mCi | Liver dose of yttrium-labeled F(ab′)2 LL2 (mice [3]): 5375.0 cGy/mCi | Lungs dose of yttrium-labeled F(ab′)2 LL2 (mice [3]): 2192.1 cGy/mCi | Spleen dose of yttrium-labeled F(ab′)2 LL2 (mice [3]): 3031.9 cGy/mCi | T/NT, Blood ([4]; 188Re-Fab′ Mu-9): 3.76 | T/NT, Bone ([4]; 188Re-Fab′ Mu-9): 7.11 | T/NT, Kidney ([4]; 188Re-Fab′ Mu-9): 0.25 | T/NT, Liver ([4]; 188Re-Fab′ Mu-9): 1.30 | T/NT, Lung ([4]; 188Re-Fab′ Mu-9): 1.86 | T/NT, Spleen ([4]; 188Re-Fab′ Mu-9): 2.64 | Blood dose of 188Re-Fab′ Mu-9 [4]: 203.1 cGy/mCi | Bone dose of 188Re-Fab′ Mu-9 [4]: 107.3 cGy/mCi | GW39 dose of 188Re-Fab′ Mu-9 [4]: 763.4 cGy/mCi | Kidney dose of 188Re-Fab′ Mu-9 [4]: 3085.2 cGy/mCi | Liver dose of 188Re-Fab′ Mu-9 [4]: 587.6 cGy/mCi | Lung dose of 188Re-Fab′ Mu-9 [4]: 410.4 cGy/mCi | Spleen dose of 188Re-Fab′ Mu-9 [4]: 289.0 cGy/mCi
